Experimental data reported in article doi:10.1101/2023.12.20.572542 (bioRxiv, 2023).
Results are given in words; binding and its absence hold for the method and conditions named. Some results given as binding are weak or reduced against the parent protein; the word gives no strength. Where a sequence is shown, tags or fusion partners need not be part of it. One block for each binder: values may come before it.

Assays:
[1] = target: LRRC55 (γ3)-mCherry-FLAG (UniProt Q6ZSA7); assay: SEC
[2] = target: LRRD of γ4 (residues 1-247)-mCherry-FLAG (UniProt Q5VT99); assay: SEC
[3] = target: LRRC52 (γ2)-mCherry-FLAG (UniProt Q8N7C0); assay: SEC
[4] = target: LRRD of γ2 (residues 1-244)-mCherry-FLAG (UniProt Q8N7C0); assay: SEC
[5] = target: LRRC38 (γ4)-mCherry-FLAG (UniProt Q5VT99); assay: SEC
[6] = target: T1, sp9C1-eGFP-twinstrep (sea urchin ortholog of SLC9C1) (sea urchin) (UniProt A3RL54)
T1 sequence: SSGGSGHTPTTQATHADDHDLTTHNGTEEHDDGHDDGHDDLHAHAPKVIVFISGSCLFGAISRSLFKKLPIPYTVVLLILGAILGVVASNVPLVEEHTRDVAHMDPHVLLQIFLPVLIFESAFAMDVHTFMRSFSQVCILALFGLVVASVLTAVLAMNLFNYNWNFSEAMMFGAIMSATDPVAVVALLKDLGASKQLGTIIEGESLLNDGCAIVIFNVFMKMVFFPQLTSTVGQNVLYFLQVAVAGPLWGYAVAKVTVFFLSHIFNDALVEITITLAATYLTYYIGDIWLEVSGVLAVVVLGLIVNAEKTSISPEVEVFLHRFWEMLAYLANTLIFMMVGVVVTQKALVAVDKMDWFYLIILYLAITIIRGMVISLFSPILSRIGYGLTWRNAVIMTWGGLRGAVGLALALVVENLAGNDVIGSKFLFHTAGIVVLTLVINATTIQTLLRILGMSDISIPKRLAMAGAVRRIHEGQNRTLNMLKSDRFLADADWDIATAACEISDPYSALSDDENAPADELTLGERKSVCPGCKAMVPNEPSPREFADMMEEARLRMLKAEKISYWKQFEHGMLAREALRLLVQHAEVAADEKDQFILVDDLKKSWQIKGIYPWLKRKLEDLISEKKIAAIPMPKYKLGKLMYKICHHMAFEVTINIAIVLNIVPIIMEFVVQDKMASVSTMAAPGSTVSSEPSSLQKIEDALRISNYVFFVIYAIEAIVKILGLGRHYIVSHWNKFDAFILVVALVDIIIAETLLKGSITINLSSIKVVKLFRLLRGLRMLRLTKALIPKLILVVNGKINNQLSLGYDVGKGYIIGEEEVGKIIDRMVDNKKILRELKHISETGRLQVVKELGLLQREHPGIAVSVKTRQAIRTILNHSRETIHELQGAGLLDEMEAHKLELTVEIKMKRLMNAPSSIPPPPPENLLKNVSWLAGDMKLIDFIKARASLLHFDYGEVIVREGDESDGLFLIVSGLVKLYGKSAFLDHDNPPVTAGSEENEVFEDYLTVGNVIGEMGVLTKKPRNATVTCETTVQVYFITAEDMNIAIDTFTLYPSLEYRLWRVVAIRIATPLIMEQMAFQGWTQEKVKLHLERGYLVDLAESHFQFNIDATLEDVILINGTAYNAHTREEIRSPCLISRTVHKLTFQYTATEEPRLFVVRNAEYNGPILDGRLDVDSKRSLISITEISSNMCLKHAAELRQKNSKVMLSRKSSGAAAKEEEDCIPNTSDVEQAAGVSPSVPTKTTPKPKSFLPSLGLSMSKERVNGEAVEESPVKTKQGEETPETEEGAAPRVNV

B1: LRRC55 (γ3)-mCherry-FLAG (protein, UniProt Q6ZSA7 35-298)
chain: GTSCPVLCTCRNQVVDCSSQRLFSVPPDLPMDTRNLSLAHNRITAVPPGYLTCYMELQVLDLHNNSLMELPRGLFLHAKRLAHLDLSYNNFSHVPADMFQEAHGLVHIDLSHNPWLRRVHPQAFQGLMQLRDLDLSYGGLAFLSLEALEGLPGLVTLQIGGNPWVCGCTMEPLLKWLRNRIQRCTADSQLAECRGPPEVEGAPLFSLTEESFKACHLTLTLDDYLFIAFVGFVVSIASVATNFLLGITANCCHRWSKASEEEEI
binding [1]: binds

B3: LRRC52 (γ2)-mCherry-FLAG (protein, UniProt Q8N7C0 24-313)
chain: SKCPNNCLCQAQEVICTGKQLTEYPLDIPLNTRRLFLNENRITSLPAMHLGLLSDLVYLDCQNNRIREVMDYTFIGVFKLIYLDLSSNNLTSISPFTFSVLSNLVQLNIANNPHLLSLHKFTFANTTSLRYLDLRNTGLQTLDSAALYHLTTLETLFLSGNPWKCNCSFLDFAIFLIVFHMDPSDDLNATCVEPTELTGWPITRVGNPLRYMCITHLDHKDYIFLLLIGFCIFAAGTVAAWLTGVCAVLYQNTRHKSSEEDEDEAGTRVEVSRRIFQTQTSSVQEFPQLI
binding [3]: binds

B5: LRRC38 (γ4)-mCherry-FLAG (protein, UniProt Q5VT99 28-294)
chain: CPAGCACTDPHTVDCRDRGLPSVPDPFPLDVRKLLVAGNRIQRIPEDFFIFYGDLVYLDFRNNSLRSLEEGTFSGSAKLVFLDLSYNNLTQLGAGAFRSAGRLVKLSLANNNLVGVHEDAFETLESLQVLELNDNNLRSLSVAALAALPALRSLRLDGNPWLCDCDFAHLFSWIQENASKLPKGLDEIQCSLPMESRRISLRELSEASFSECRFSLSLTDLCIIIFSGVAVSIAAIISSFFLATVVQCLQRCAPNKDAEDEDEDKDD
binding [5]: binds

Next, values leading:

binding [2]: binds
B2: LRRD of γ4 (residues 1-247)-mCherry-FLAG (domain or fragment, UniProt Q5VT99 28-247)
chain: CPAGCACTDPHTVDCRDRGLPSVPDPFPLDVRKLLVAGNRIQRIPEDFFIFYGDLVYLDFRNNSLRSLEEGTFSGSAKLVFLDLSYNNLTQLGAGAFRSAGRLVKLSLANNNLVGVHEDAFETLESLQVLELNDNNLRSLSVAALAALPALRSLRLDGNPWLCDCDFAHLFSWIQENASKLPKGLDEIQCSLPMESRRISLRELSEASFSECRFSLSLTD

binding [4]: binds
B4: LRRD of γ2 (residues 1-244)-mCherry-FLAG (domain or fragment, UniProt Q8N7C0 24-244)
chain: SKCPNNCLCQAQEVICTGKQLTEYPLDIPLNTRRLFLNENRITSLPAMHLGLLSDLVYLDCQNNRIREVMDYTFIGVFKLIYLDLSSNNLTSISPFTFSVLSNLVQLNIANNPHLLSLHKFTFANTTSLRYLDLRNTGLQTLDSAALYHLTTLETLFLSGNPWKCNCSFLDFAIFLIVFHMDPSDDLNATCVEPTELTGWPITRVGNPLRYMCITHLDHKD

binding [6]: binds
B6: sp9C1-mCherry-FLAG (sea urchin ortholog of SLC9C1) (protein, UniProt A3RL54 30-1325)
chain: SSGGSGHTPTTQATHADDHDLTTHNGTEEHDDGHDDGHDDLHAHAPKVIVFISGSCLFGAISRSLFKKLPIPYTVVLLILGAILGVVASNVPLVEEHTRDVAHMDPHVLLQIFLPVLIFESAFAMDVHTFMRSFSQVCILALFGLVVASVLTAVLAMNLFNYNWNFSEAMMFGAIMSATDPVAVVALLKDLGASKQLGTIIEGESLLNDGCAIVIFNVFMKMVFFPQLTSTVGQNVLYFLQVAVAGPLWGYAVAKVTVFFLSHIFNDALVEITITLAATYLTYYIGDIWLEVSGVLAVVVLGLIVNAEKTSISPEVEVFLHRFWEMLAYLANTLIFMMVGVVVTQKALVAVDKMDWFYLIILYLAITIIRGMVISLFSPILSRIGYGLTWRNAVIMTWGGLRGAVGLALALVVENLAGNDVIGSKFLFHTAGIVVLTLVINATTIQTLLRILGMSDISIPKRLAMAGAVRRIHEGQNRTLNMLKSDRFLADADWDIATAACEISDPYSALSDDENAPADELTLGERKSVCPGCKAMVPNEPSPREFADMMEEARLRMLKAEKISYWKQFEHGMLAREALRLLVQHAEVAADEKDQFILVDDLKKSWQIKGIYPWLKRKLEDLISEKKIAAIPMPKYKLGKLMYKICHHMAFEVTINIAIVLNIVPIIMEFVVQDKMASVSTMAAPGSTVSSEPSSLQKIEDALRISNYVFFVIYAIEAIVKILGLGRHYIVSHWNKFDAFILVVALVDIIIAETLLKGSITINLSSIKVVKLFRLLRGLRMLRLTKALIPKLILVVNGKINNQLSLGYDVGKGYIIGEEEVGKIIDRMVDNKKILRELKHISETGRLQVVKELGLLQREHPGIAVSVKTRQAIRTILNHSRETIHELQGAGLLDEMEAHKLELTVEIKMKRLMNAPSSIPPPPPENLLKNVSWLAGDMKLIDFIKARASLLHFDYGEVIVREGDESDGLFLIVSGLVKLYGKSAFLDHDNPPVTAGSEENEVFEDYLTVGNVIGEMGVLTKKPRNATVTCETTVQVYFITAEDMNIAIDTFTLYPSLEYRLWRVVAIRIATPLIMEQMAFQGWTQEKVKLHLERGYLVDLAESHFQFNIDATLEDVILINGTAYNAHTREEIRSPCLISRTVHKLTFQYTATEEPRLFVVRNAEYNGPILDGRLDVDSKRSLISITEISSNMCLKHAAELRQKNSKVMLSRKSSGAAAKEEEDCIPNTSDVEQAAGVSPSVPTKTTPKPKSFLPSLGLSMSKERVNGEAVEESPVKTKQGEETPETEEGAAPRVNV
